From publication PMC10942865
Results are given in words; binding and its absence hold for the method and conditions named. For some of these results: Binding seen in cells or lysates may run through a third protein. Some binding calls cover weakened binding; strength is not graded here. For some of these results: Where a sequence is shown, tags or fusion partners need not be part of it.

Sequences of proteins named here, by UniProt entry; tags and fusion partners are left off. A change or cut given only in a name is not applied to a line headed by its entry. Residues count along the entry.
UniProt Q9Y4B6: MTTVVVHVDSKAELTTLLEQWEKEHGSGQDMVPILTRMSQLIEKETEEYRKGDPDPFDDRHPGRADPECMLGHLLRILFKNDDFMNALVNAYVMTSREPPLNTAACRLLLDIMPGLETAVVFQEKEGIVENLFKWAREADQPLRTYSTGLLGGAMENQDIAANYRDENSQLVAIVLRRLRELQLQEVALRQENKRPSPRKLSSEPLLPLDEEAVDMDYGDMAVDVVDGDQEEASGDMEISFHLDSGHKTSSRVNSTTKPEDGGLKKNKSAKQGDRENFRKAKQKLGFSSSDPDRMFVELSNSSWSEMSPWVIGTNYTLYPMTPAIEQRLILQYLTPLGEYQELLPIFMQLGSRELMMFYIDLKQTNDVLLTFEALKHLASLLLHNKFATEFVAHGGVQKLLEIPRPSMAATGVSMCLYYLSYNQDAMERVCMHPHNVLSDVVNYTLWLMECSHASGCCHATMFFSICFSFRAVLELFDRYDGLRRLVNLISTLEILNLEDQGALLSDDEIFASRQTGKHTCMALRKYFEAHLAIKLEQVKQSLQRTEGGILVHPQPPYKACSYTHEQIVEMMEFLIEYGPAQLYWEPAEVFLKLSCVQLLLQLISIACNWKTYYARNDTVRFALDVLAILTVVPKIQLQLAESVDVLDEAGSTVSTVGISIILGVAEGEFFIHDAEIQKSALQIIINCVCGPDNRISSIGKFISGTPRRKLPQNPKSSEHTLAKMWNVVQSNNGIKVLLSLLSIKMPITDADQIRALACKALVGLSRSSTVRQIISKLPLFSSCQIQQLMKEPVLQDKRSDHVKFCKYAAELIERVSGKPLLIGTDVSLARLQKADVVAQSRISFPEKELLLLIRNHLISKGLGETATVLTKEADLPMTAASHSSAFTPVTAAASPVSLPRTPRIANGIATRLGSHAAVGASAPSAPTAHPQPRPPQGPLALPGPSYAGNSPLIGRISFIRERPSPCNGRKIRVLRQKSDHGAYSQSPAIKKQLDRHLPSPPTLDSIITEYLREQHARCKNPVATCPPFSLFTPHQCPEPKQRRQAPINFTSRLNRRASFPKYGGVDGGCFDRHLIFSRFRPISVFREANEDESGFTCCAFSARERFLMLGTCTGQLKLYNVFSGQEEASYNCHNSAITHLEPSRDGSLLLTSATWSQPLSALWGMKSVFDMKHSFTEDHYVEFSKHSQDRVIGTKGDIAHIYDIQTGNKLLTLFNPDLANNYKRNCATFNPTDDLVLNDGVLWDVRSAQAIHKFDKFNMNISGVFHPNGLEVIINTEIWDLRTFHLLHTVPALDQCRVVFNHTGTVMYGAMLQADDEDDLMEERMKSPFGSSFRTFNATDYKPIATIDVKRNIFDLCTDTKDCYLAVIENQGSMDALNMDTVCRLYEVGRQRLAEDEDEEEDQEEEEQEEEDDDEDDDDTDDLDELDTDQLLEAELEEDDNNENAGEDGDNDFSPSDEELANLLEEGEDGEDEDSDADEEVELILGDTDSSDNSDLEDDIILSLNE
Flag-DCAF1 WD40-Acidic (aa 1073-1507): residues 1073-1507 of Q9Y4B6
Flag-DCAF1 WD40 domain alone (aa 1073-1396): residues 1073-1396 of Q9Y4B6

Columns and labels:
[1] = target: DCAF1 (VprBP), endogenous (human (endogenous in HEK293T)) (UniProt Q9Y4B6); assay: co-IP; endogenous proteins; HEK293T extract with 4 μg mouse anti-DCAF1 or unspecific IgG overnight, protein G Sepharose 2 h at 4°C, Western blot
[2] = target: Flag-DCAF1 WD40-Acidic (aa 1073-1507) (UniProt Q9Y4B6); assay: co-IP; Flag-tagged protein overexpressed in HEK293T; 3-6 mg cell extract in NP-40 buffer with α-Flag M2 beads, 3 h or overnight at 4°C, 3x Flag peptide elution, Western blot; also cells synchronized in G1/S or G2, siRNA against PLK4, or λ-phosphatase treatment of the immunoprecipitate
[3] = target: Flag-DCAF1 WD40 domain alone (aa 1073-1396) (UniProt Q9Y4B6); assay: as above
GST-DCAF1 = GST-DCAF1 (UniProt Q9Y4B6); assay: pull-down; 10 μg GST-DCAF1 and 10 μg MBP-PLK4 in 200 μl NP-40 buffer, 4°C, 1 h; glutathione Sepharose beads 2 h; five washes; Western blot; both purified

Binder | binding [1] | binding [2] | binding [3] | binding (GST-DCAF1)
PLK4 (polo-like kinase 4), endogenous (protein, UniProt O00444 1-970) MATCIGEKIEDFKVGNLLGKGSFAGVYRAESIHTGLEVAIKMIDKKAMYKAGMVQRVQNEVKIHCQLKHPSILELYNYFEDSNYVYLVLEMCHNGEMNRYLKNRVKPFSENEARHFMHQIITGMLYLHSHGILHRDLTLSNLLLTRNMNIKIADFGLATQLKMPHEKHYTLCGTPNYISPEIATRSAHGLESDVWSLGCMFYTLLIGRPPFDTDTVKNTLNKVVLADYEMPSFLSIEAKDLIHQLLRRNPADRLSLSSVLDHPFMSRNSSTKSKDLGTVEDSIDSGHATISTAITASSSTSISGSLFDKRRLLIGQPLPNKMTVFPKNKSSTDFSSSGDGNSFYTQWGNQETSNSGRGRVIQDAEERPHSRYLRRAYSSDRSGTSNSQSQAKTYTMERCHSAEMLSVSKRSGGGENEERYSPTDNNANIFNFFKEKTSSSSGSFERPDNNQALSNHLCPGKTPFPFADPTPQTETVQQWFGNLQINAHLRKTTEYDSISPNRDFQGHPDLQKDTSKNAWTDTKVKKNSDASDNAHSVKQQNTMKYMTALHSKPEIIQQECVFGSDPLSEQSKTRGMEPPWGYQNRTLRSITSPLVAHRLKPIRQKTKKAVVSILDSEEVCVELVKEYASQEYVKEVLQISSDGNTITIYYPNGGRGFPLADRPPSPTDNISRYSFDNLPEKYWRKYQYASRFVQLVRSKSPKITYFTRYAKCILMENSPGADFEVWFYDGVKIHKTEDFIQVIEKTGKSYTLKSESEVNSLKEEIKMYMDHANEGHRICLALESIISEEERKTRSAPFFPIIIGRKPGSTSSPKALSPPPSVDSNYPTRERASFNRMVMHSAASPTQAPILNPSMVTNEGLGLTTTASGTDISSNSLKDCLPKSAQLLKSVFVKNVGWATQLTSGAVWVQFNDGSQLVVQAGVSSISYTSPNGQTTRYGENEKLPDYIKQKLQCLSSILLMFSNPTPNFH | binds | binds | no binding | 
MBP-PLK4 (protein, UniProt O00444 1-970) MATCIGEKIEDFKVGNLLGKGSFAGVYRAESIHTGLEVAIKMIDKKAMYKAGMVQRVQNEVKIHCQLKHPSILELYNYFEDSNYVYLVLEMCHNGEMNRYLKNRVKPFSENEARHFMHQIITGMLYLHSHGILHRDLTLSNLLLTRNMNIKIADFGLATQLKMPHEKHYTLCGTPNYISPEIATRSAHGLESDVWSLGCMFYTLLIGRPPFDTDTVKNTLNKVVLADYEMPSFLSIEAKDLIHQLLRRNPADRLSLSSVLDHPFMSRNSSTKSKDLGTVEDSIDSGHATISTAITASSSTSISGSLFDKRRLLIGQPLPNKMTVFPKNKSSTDFSSSGDGNSFYTQWGNQETSNSGRGRVIQDAEERPHSRYLRRAYSSDRSGTSNSQSQAKTYTMERCHSAEMLSVSKRSGGGENEERYSPTDNNANIFNFFKEKTSSSSGSFERPDNNQALSNHLCPGKTPFPFADPTPQTETVQQWFGNLQINAHLRKTTEYDSISPNRDFQGHPDLQKDTSKNAWTDTKVKKNSDASDNAHSVKQQNTMKYMTALHSKPEIIQQECVFGSDPLSEQSKTRGMEPPWGYQNRTLRSITSPLVAHRLKPIRQKTKKAVVSILDSEEVCVELVKEYASQEYVKEVLQISSDGNTITIYYPNGGRGFPLADRPPSPTDNISRYSFDNLPEKYWRKYQYASRFVQLVRSKSPKITYFTRYAKCILMENSPGADFEVWFYDGVKIHKTEDFIQVIEKTGKSYTLKSESEVNSLKEEIKMYMDHANEGHRICLALESIISEEERKTRSAPFFPIIIGRKPGSTSSPKALSPPPSVDSNYPTRERASFNRMVMHSAASPTQAPILNPSMVTNEGLGLTTTASGTDISSNSLKDCLPKSAQLLKSVFVKNVGWATQLTSGAVWVQFNDGSQLVVQAGVSSISYTSPNGQTTRYGENEKLPDYIKQKLQCLSSILLMFSNPTPNFH |  |  |  | binds
